Results from PMC2886121.

By UniProt entry, the sequences of proteins in these tests, tags left out. Where a name states a change or a piece, a line headed by the entry shows the natural chain unless it says otherwise.
UniProt P25116: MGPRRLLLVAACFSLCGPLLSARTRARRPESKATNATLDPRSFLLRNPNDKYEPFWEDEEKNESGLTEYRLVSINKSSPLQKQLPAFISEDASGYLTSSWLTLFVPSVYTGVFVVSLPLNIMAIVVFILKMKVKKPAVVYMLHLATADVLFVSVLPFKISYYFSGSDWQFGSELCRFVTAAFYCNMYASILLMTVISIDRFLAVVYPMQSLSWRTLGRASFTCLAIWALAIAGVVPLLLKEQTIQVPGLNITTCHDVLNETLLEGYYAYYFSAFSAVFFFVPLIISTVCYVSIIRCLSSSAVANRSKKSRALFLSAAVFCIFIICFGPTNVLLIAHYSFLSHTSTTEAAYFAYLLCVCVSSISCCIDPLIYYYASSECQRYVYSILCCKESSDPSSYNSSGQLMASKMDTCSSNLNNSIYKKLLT

T1: GST-PH-Etk/Bmx (UniProt P51813)
T1 sequence: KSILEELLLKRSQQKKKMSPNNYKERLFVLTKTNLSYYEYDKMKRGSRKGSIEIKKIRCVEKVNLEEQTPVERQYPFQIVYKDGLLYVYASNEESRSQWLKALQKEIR


What was measured:
GST-PH-Etk/Bmx = molecular target: T1, GST-PH-Etk/Bmx; assay: pull-down; purified PAR1 C-tail fragments (cleaved from GST by thrombin) applied to GST-PH-Etk/Bmx column or GST beads; incubation 4 h; blot with anti-PAR1 (ATAP); both purified
[1] = molecular target: GST-PAR1 C-tail Y381A (human) (UniProt P25116); assay: pull-down; GST-PAR1-C-tail columns (wt, Y381A, Y383A) or GST control; lysates of HEK293 cells transfected with Etk/Bmx or kinase-inactive Etk/Bmx (KQ) applied; blot with anti-Etk/Bmx; only the target purified
[2] = molecular target: GST-PAR1 C-tail Y383A (human) (UniProt P25116); assay: as above

| binding (GST-PH-Etk/Bmx) | binding [1] | binding [2] | Molecule |
| --- | --- | --- | --- |
| binds |  |  | purified PAR1 C-tail Y381A, cleaved from GST-C-tail (from UniProt P25116) (domain or fragment) |
|  | binds | binds | Etk/Bmx (wt), transfected in HEK293 cells (enzyme, UniProt P51813 1-675) MDTKSILEELLLKRSQQKKKMSPNNYKERLFVLTKTNLSYYEYDKMKRGSRKGSIEIKKIRCVEKVNLEEQTPVERQYPFQIVYKDGLLYVYASNEESRSQWLKALQKEIRGNPHLLVKYHSGFFVDGKFLCCQQSCKAAPGCTLWEAYANLHTAVNEEKHRVPTFPDRVLKIPRAVPVLKMDAPSSSTTLAQYDNESKKNYGSQPPSSSTSLAQYDSNSKKIYGSQPNFNMQYIPREDFPDWWQVRKLKSSSSSEDVASSNQKERNVNHTTSKISWEFPESSSSEEEENLDDYDWFAGNISRSQSEQLLRQKGKEGAFMVRNSSQVGMYTVSLFSKAVNDKKGTVKHYHVHTNAENKLYLAENYCFDSIPKLIHYHQHNSAGMITRLRHPVSTKANKVPDSVSLGNGIWELKREEITLLKELGSGQFGVVQLGKWKGQYDVAVKMIKEGSMSEDEFFQEAQTMMKLSHPKLVKFYGVCSKEYPIYIVTEYISNGCLLNYLRSHGKGLEPSQLLEMCYDVCEGMAFLESHQFIHRDLAARNCLVDRDLCVKVSDFGMTRYVLDDQYVSSVGTKFPVKWSAPEVFHYFKYSSKSDVWAFGILMWEVFSLGKQPYDLYDNSQVVLKVSQGHRLYRPHLASDTIYQIMYSCWHELPEKRPTFQQLLSSIEPLREKDKH |

Results are given in words; binding and its absence hold for the method and conditions named. A result given as binding can be weak or reduced; the word gives no strength. For part of these data: Where a sequence is shown, tags or fusion partners need not be part of it. For part of these data: In cells and extracts the contact can be indirect.
